In publication PMC6434023, “A TonB-dependent transporter is required for secretion of protease PopC across the bacterial outer membrane” (Nature Communications, 2019) one finds binding data, which are given here for 3 molecules.

Sequences of proteins named here, by UniProt entry; tags and fusion partners are left off. Residues count along the entry.
UniProt P02929, residues 139-239: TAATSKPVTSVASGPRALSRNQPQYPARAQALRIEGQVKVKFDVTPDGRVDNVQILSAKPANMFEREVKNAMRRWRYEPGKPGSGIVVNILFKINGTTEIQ

These are yes or no findings as the source states them, for the method shown. For part of these data: In cells and extracts the contact can be indirect. Some binding calls cover weakened binding; strength is not graded here.

In assay [1] the target is T1, PopC expressed in E. coli (M. xanthus, UniProt Q1DFT5 1-475).
T1 construct: PopC of Myxococcus xanthus, expressed as 'native' PopC in E. coli; no tag is named; 'Native' probably means the untagged whole protein; also called native PopC; source: E. coli Rosetta-2(DE3) (WT or ΔtonB), IPTG-induced, in isolated membranes / cell fractions
T1 sequence (looked up): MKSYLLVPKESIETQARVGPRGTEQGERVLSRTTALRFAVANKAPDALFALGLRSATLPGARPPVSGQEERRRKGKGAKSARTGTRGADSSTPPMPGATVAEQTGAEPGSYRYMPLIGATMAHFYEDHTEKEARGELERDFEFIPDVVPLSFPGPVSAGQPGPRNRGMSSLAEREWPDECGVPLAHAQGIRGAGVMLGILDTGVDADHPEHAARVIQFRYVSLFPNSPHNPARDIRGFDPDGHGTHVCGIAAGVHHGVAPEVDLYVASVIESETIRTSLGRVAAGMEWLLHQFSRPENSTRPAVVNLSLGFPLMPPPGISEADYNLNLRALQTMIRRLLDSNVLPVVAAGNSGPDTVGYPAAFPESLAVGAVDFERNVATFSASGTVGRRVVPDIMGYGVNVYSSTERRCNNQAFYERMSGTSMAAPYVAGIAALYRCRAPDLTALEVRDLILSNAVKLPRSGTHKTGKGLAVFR
As to the kind of experiment: co-IP; α-PopC antibodies and protein G magnetic beads on isolated membranes (50 mM HEPES pH 7.5, 150 mM NaCl, 5 mM EDTA, 1% sodium lauroylsarcosinate) of E. coli WT and ΔtonB expressing PopC and/or Oar; 4 °C; immunoblots for PopC and Oar. For orientation: A western blot detects proteins with antibodies after separation by electrophoresis.

Assay [2] deals with T2, TonB-dependent transporter Oar (MXAN_1450) (M. xanthus (endogenous in DK101)) (UniProt P38370).
T2 sequence: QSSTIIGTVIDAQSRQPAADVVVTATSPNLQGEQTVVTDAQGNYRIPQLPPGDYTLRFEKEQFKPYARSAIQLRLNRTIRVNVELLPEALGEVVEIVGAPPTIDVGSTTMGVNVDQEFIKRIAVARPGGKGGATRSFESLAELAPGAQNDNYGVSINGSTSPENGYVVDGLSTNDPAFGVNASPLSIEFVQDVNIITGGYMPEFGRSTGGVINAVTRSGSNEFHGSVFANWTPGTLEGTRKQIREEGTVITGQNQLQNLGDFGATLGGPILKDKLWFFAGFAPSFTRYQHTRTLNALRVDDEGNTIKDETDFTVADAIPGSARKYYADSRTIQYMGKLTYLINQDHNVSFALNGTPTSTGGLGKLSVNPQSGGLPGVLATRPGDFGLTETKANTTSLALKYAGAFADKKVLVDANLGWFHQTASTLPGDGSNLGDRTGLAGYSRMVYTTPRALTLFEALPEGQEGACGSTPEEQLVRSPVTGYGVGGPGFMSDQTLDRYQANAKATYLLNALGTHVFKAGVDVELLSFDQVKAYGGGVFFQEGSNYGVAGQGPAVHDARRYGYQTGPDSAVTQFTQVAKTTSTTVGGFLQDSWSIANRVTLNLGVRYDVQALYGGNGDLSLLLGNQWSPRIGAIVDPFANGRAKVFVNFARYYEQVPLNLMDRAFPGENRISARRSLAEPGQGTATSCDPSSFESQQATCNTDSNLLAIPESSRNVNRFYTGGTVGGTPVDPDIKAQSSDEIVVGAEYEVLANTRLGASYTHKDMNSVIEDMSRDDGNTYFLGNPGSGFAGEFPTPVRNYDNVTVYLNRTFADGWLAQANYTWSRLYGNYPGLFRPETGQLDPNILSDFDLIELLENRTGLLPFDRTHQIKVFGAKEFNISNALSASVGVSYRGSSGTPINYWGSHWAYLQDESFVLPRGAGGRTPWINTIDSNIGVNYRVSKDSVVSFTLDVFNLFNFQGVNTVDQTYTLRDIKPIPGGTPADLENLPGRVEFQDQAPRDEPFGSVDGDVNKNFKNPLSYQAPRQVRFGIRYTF
In words: cross-linking; in vivo DSP (0.25 mM, 30 min, 30 °C, PBS) on M. xanthus cells starved for 6 h; membrane fraction isolated, with or without 50 mM DTT; immunoblots with α-PopC and α-Oar; Δoar and popC mutants as controls.

The target of assay [3] is C-terminal domain of TonB from E. coli (TonB 139-239) (E. coli) (UniProt P02929). In words: two-hybrid; bacterial two-hybrid (BACTH) in E. coli BTH101; fragments fused N- or C-terminally to T25 and T18 of CyaA; blue colour on X-Gal/IPTG plates and β-galactosidase specific activity.

B1: Oar expressed in E. coli (natural protein, M. xanthus, UniProt P38370 27-1061, looked up)
chain: QSSTIIGTVIDAQSRQPAADVVVTATSPNLQGEQTVVTDAQGNYRIPQLPPGDYTLRFEKEQFKPYARSAIQLRLNRTIRVNVELLPEALGEVVEIVGAPPTIDVGSTTMGVNVDQEFIKRIAVARPGGKGGATRSFESLAELAPGAQNDNYGVSINGSTSPENGYVVDGLSTNDPAFGVNASPLSIEFVQDVNIITGGYMPEFGRSTGGVINAVTRSGSNEFHGSVFANWTPGTLEGTRKQIREEGTVITGQNQLQNLGDFGATLGGPILKDKLWFFAGFAPSFTRYQHTRTLNALRVDDEGNTIKDETDFTVADAIPGSARKYYADSRTIQYMGKLTYLINQDHNVSFALNGTPTSTGGLGKLSVNPQSGGLPGVLATRPGDFGLTETKANTTSLALKYAGAFADKKVLVDANLGWFHQTASTLPGDGSNLGDRTGLAGYSRMVYTTPRALTLFEALPEGQEGACGSTPEEQLVRSPVTGYGVGGPGFMSDQTLDRYQANAKATYLLNALGTHVFKAGVDVELLSFDQVKAYGGGVFFQEGSNYGVAGQGPAVHDARRYGYQTGPDSAVTQFTQVAKTTSTTVGGFLQDSWSIANRVTLNLGVRYDVQALYGGNGDLSLLLGNQWSPRIGAIVDPFANGRAKVFVNFARYYEQVPLNLMDRAFPGENRISARRSLAEPGQGTATSCDPSSFESQQATCNTDSNLLAIPESSRNVNRFYTGGTVGGTPVDPDIKAQSSDEIVVGAEYEVLANTRLGASYTHKDMNSVIEDMSRDDGNTYFLGNPGSGFAGEFPTPVRNYDNVTVYLNRTFADGWLAQANYTWSRLYGNYPGLFRPETGQLDPNILSDFDLIELLENRTGLLPFDRTHQIKVFGAKEFNISNALSASVGVSYRGSSGTPINYWGSHWAYLQDESFVLPRGAGGRTPWINTIDSNIGVNYRVSKDSVVSFTLDVFNLFNFQGVNTVDQTYTLRDIKPIPGGTPADLENLPGRVEFQDQAPRDEPFGSVDGDVNKNFKNPLSYQAPRQVRFGIRYTF
notes: Oar (MXAN_1450) of Myxococcus xanthus, expressed as 'native' Oar in E. coli; no tag is named; 'Native' probably means the untagged protein with its own signal peptide; it was found enriched in the E. coli outer membrane; also called native Oar; source: E. coli Rosetta-2(DE3) (WT or ΔtonB), IPTG-induced, in isolated membranes / cell fractions
On to B1, for which the binding entry in assay [1] is recorded as “binds”.

B2: protease PopC (enzyme, UniProt Q1DFT5 1-475)
chain: MKSYLLVPKESIETQARVGPRGTEQGERVLSRTTALRFAVANKAPDALFALGLRSATLPGARPPVSGQEERRRKGKGAKSARTGTRGADSSTPPMPGATVAEQTGAEPGSYRYMPLIGATMAHFYEDHTEKEARGELERDFEFIPDVVPLSFPGPVSAGQPGPRNRGMSSLAEREWPDECGVPLAHAQGIRGAGVMLGILDTGVDADHPEHAARVIQFRYVSLFPNSPHNPARDIRGFDPDGHGTHVCGIAAGVHHGVAPEVDLYVASVIESETIRTSLGRVAAGMEWLLHQFSRPENSTRPAVVNLSLGFPLMPPPGISEADYNLNLRALQTMIRRLLDSNVLPVVAAGNSGPDTVGYPAAFPESLAVGAVDFERNVATFSASGTVGRRVVPDIMGYGVNVYSSTERRCNNQAFYERMSGTSMAAPYVAGIAALYRCRAPDLTALEVRDLILSNAVKLPRSGTHKTGKGLAVFR
B2: the binding result in assay [2] is listed as “binds”.

B3: periplasmic N-terminal region of Oar that bears NTE and plug domains (Oar 24-248) (domain or fragment, UniProt P38370 24-248)
chain: AFAQSSTIIGTVIDAQSRQPAADVVVTATSPNLQGEQTVVTDAQGNYRIPQLPPGDYTLRFEKEQFKPYARSAIQLRLNRTIRVNVELLPEALGEVVEIVGAPPTIDVGSTTMGVNVDQEFIKRIAVARPGGKGGATRSFESLAELAPGAQNDNYGVSINGSTSPENGYVVDGLSTNDPAFGVNASPLSIEFVQDVNIITGGYMPEFGRSTGGVINAVTRSGSNE
As to B3, the binding entry in assay [3] is listed as “binds”.
